Laboratory results published in PubChem BioAssay AID2551 (National Center for Advancing Translational Sciences (NCATS), 2010).
Hit rate of the full screen: of about 310,000 compounds, about 17,000 (5.5%) were called active. Inconclusive results, whose numbers are uncertain, are shown with a selection of clear calls. Calls come from the whole dose curve; as a rule, active = well fitted inhibition curve with a large enough effect; inconclusive = small, poorly fitted or top-dose-only effect, or effect the other way; inactive = no such curve, though single readings can be large or run the other way. Where the call is inconclusive, the potency comes from a doubtful curve fit.

Sequences of proteins named here, by UniProt entry; tags and fusion partners are left off. A change or cut given only in a name is not applied to a line headed by its entry.
UniProt P51450: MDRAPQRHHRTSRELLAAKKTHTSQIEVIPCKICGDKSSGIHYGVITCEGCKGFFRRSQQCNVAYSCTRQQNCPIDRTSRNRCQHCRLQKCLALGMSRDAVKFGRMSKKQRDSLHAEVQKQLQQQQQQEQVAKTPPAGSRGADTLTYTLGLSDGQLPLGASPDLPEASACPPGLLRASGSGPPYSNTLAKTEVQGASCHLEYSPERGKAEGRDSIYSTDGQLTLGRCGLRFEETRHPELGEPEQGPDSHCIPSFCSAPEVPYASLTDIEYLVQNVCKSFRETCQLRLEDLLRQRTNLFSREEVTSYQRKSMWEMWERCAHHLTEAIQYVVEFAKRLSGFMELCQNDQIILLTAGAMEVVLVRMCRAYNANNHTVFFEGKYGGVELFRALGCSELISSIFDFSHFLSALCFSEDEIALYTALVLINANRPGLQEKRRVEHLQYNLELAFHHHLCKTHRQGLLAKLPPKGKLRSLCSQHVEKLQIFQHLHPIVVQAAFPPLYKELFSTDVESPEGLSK

Target: Nuclear receptor ROR-gamma (Mus musculus) (UniProt P51450)
Experiment: qHTS for inhibitors of ROR gamma transcriptional activity; note: nearly all actives have a fitted effect of over 60% in size
Settings: Drosophila S2 Gal4-RORgamma UAS-luciferase reporter, 20 h; activity change, negative = inhibition: at 53.6 µM (top of the series)
Outline: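 Drosophila Schneider cells stably carrying a metallothionein-driven Gal4 DBD–ROR gamma fusion and a UAS-Photinus luciferase reporter were exposed to compound for 1 hr, then induced with copper sulfate (700 uM final) for 20 hr at ambient temperature before luminescence reading.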
% is set by controls: 0 for no effect and ±100 for the full control effect; potency is the fitted concentration of half-maximal effect.

Activity change, negative = inhibition, inactive:
Cn1cc(C(=O)NC2CCCCCCC2)c(=O)c2cc(S(=O)(=O)N3CCCC3)ccc21 -17.6%
Cc1cccc(/C=N/n2c(-c3ccccc3)n[nH]c2=S)c1O -38.2%
O=C(COC(=O)c1ccc2c(c1)OCO2)Nc1ncc(Cl)cc1Cl 28%
COc1ccccc1OCCCC(=O)NC(C)c1ccccc1 (stereo not given) 13.2%
O=C(CNC(=O)c1ccccc1Br)N/N=C/c1cccs1 0.433%
C=CCN1C(=O)CN=C1Nc1cc(C)ccc1C -17.4%
COCCNC(=O)C1(C(F)(F)F)C/C(=C\Cc2ccccc2)CCCO1 (stereo not given) -36.7%
CC(=O)NCCOc1ccc2oc3ccccc3c2c1 13.1%
CCOC(=O)c1c(NC(=O)COC(=O)CNC(=O)c2ccco2)sc(C(C)=O)c1C -2.62%
CCCCOc1ccc(C)cc1CN(CCO)CCO -1.23%
NC(=O)CC(NC(=O)Cc1cccc2ccccc12)c1ccc(NCCc2ccc(F)cc2)c([N+](=O)[O-])c1 (stereo not given) -20.7%
CCCn1c(NCc2ccccc2NS(=O)(=O)c2ccc(C)cc2)nc2ccccc21 -9.79%
O=C(NCC1CCCO1)C(c1cccs1)N(Cc1ccccc1Cl)C(=O)c1ccc(-c2ccccc2)[nH]1 (stereo not given) 24.8%
Cc1[nH]c2ccccc2c1SCc1ccccc1 26.8%
Cc1noc(C)c1CSc1nnc(-c2ccncc2)n1-c1ccc(Cl)c(Cl)c1 23.3%
CCCCCC1=C2CNC(C)(C(=O)OC)C=C2C(C)C1=O (stereo not given) 16.4%
Cc1cccc(OCCCN2C(=O)C(=O)c3cc(C)ccc32)c1 25.4%
CC(C)CCN(C)C1CCN(C(=O)Nc2c(F)cccc2F)CC1 -4.12%
CCOC(=O)C1CCN(C(=O)c2oc3ccc4c(c3c2C)C(O)CC2(CCCCC2)O4)CC1 (stereo not given) 8.47%

Random excerpt: four entries already listed, in no set order.
Activity change, negative = inhibition, inactive:
Cn1cc(C(=O)NC2CCCCCCC2)c(=O)c2cc(S(=O)(=O)N3CCCC3)ccc21 -17.6%
CCCn1c(NCc2ccccc2NS(=O)(=O)c2ccc(C)cc2)nc2ccccc21 -9.79%
Cc1[nH]c2ccccc2c1SCc1ccccc1 26.8%
CC(C)CCN(C)C1CCN(C(=O)Nc2c(F)cccc2F)CC1 -4.12%

Following part:

Potency, active:
C=C(C)COc1ccc(-c2[nH]ncc2-c2ccc(Br)cc2)c(O)c1 7.94 µM
Oc1c(I)cc(Cl)c2cccnc12 631 nM [middle of 4 runs]
CCc1ccc(-n2c(SCC(=O)c3ccc4c(c3)NC(=O)CO4)nc3ccccc3c2=O)cc1 2.51 µM
CC(C)CCNC(=S)Nc1ccccn1 0.562 µM
CNC(=O)NC(=S)NC(=O)c1cccc(Cl)c1 14.1 µM
Cc1ccc(-c2cc(C(=O)N3CCc4ccccc4C3)[nH]n2)cc1C 1 µM
CCCn1c(=S)[nH]c2ccccc2c1=O 2.82 µM

Potency, inconclusive:
CC(C(=O)Nc1ccc2nccnc2c1)N1C(=O)C2C3C=CC(C3)C2C1=O (stereo not given) 35.5 µM [activator, single point]
CC1CCC(C(C)C)C(OCC(O)CNC(C)c2ccccc2)C1 (stereo not given) 35.5 µM [inhibitor, single point]
CCc1ccc2[nH]cc(S(=O)(=O)c3ccc(C)c(C)c3)c(=O)c2c1 35.5 µM [activator, single point]
CCOc1cc(/C=C(\C#N)c2nc(-c3cccs3)c(NC(C)=O)s2)ccc1O 22.4 µM [inhibitor, single point]
Cc1c(C=O)c2ccccc2n1CC(=O)NCc1ccccc1 20 µM [activator, single point]
COc1ccc(CCCc2n[nH]c(=S)o2)c(C)c1 25.1 µM [inhibitor, single point]
C/C(=N\NC(=O)c1ccccc1)C1C2C=CC(C2)C1(C)C (stereo not given) 14.1 µM [inhibitor, partial curve, poor fit]
CCCn1c(O)c(N=NC(=O)c2ccco2)c2ccccc21 22.4 µM [inhibitor, single point]
COc1ccc(-c2csc(N3C(=O)CNC3=S)n2)cc1 12.6 µM [inhibitor, single point]
CC(=O)NC12CC3CC(C1)CC(C(=O)N(C)Cc1cccc(Cl)c1Cl)(C3)C2 5.01 µM [inhibitor, partial curve, poor fit]
O=[N+]([O-])c1cc(Cl)ccc1NCCNS(=O)(=O)c1ccccc1 11.2 µM [activator, single point]
COc1ccc(N2CCN(C(CNS(=O)(=O)c3ccc4c(c3)OCCO4)c3ccco3)CC2)cc1 (stereo not given) 35.5 µM [activator, partial curve]
O=C(CSC(=S)N1CCOCC1)c1cc2ccccc2oc1=O 35.5 µM [inhibitor, single point]
COc1ccc(CNC(=O)OCCN2CCN(Cc3ccccc3)CCC2=O)cc1 28.2 µM [activator, single point]
C/C(=N\NC(=O)c1nnn(-c2nonc2N)c1CN(C)C)c1ccco1 15.8 µM [activator, single point]
Cn1nc(C(=O)NCc2ccccc2)cc1C(=O)NCc1ccccc1 0.0631 µM [inhibitor, full curve, poor fit]
CCCC(NC(=O)CCc1c(C)c2cc3c(-c4ccccc4)coc3cc2oc1=O)C(=O)O (stereo not given) 20 µM [inhibitor, partial curve, poor fit]
COc1ccc2nc(N3CCCC(O)C3)c(C#N)cc2c1 (stereo not given) 5.01 µM [inhibitor, partial curve]
COc1ccc(/C=N/NC(=O)c2ccc(Br)cc2)cc1Cn1cc(Cl)cn1 35.5 µM [inhibitor, single point]
Cn1c(SCC(=O)N2CCOCC2)nnc1-c1cnccn1 35.5 µM [activator, single point]
COc1cc(C(=S)N2CCOCC2)ccc1OC(=O)/C=C/c1ccco1 12.6 µM [inhibitor, single point]
COc1ccccc1C(=O)Nc1nc2cc3c(cc2s1)OCCO3 12.6 µM [inhibitor, single point]
COc1ccccc1/C=C1\SC(=O)N(CCC(=O)N2CCCCC2CCO)C1=O (stereo not given) 17.8 µM [inhibitor, single point]
CC(C)(C)c1ccc(NC(=O)Nc2ccc(OCC(=O)N3CCOCC3)cc2)cc1 17.8 µM [inhibitor, partial curve]
